Measured values reported in PubChem BioAssay AID1794845 (National Center for Advancing Translational Sciences (NCATS), 2023).
Fewer than 10 of roughly 6,900 compounds were called active. The call rests on the fitted dose curve; in most records, active means well fitted curve in the direction sought with a large enough effect; inconclusive means small, poorly fitted or top-dose-only effect, or another doubt; inactive means no such curve, though single readings can be large or run the other way. Some of the results follow.

By UniProt entry, the sequences of proteins in these tests, tags left out. Where a name states a change or a piece, a line headed by the entry shows the natural chain unless it says otherwise.
UniProt C7C422: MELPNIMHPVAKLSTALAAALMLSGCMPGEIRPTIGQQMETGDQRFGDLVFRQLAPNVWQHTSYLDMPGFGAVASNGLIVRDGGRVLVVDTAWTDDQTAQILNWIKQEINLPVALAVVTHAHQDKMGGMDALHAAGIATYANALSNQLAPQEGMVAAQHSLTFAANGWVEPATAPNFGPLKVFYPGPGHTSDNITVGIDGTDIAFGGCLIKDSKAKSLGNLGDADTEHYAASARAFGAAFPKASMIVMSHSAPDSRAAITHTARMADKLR

Target: Metallo-beta-lactamase type 2 (Klebsiella pneumoniae) (UniProt C7C422)
Assay: qHTS to identify inhibitors of the New Delhi Metallo-beta-lactamase (NDM): primary screen against the NCATS Gemini Collection; further: % of control where 0% means no effect
Details: NDM-1 enzyme, meropenem hydrolysis, absorbance 300 nm; at 38.4 µM (top of the series) unless noted
In short: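 NDM-1 at 2 nM final in 50 mM HEPES pH 7.0, 1 uM ZnSO4, 0.01% Tween20, preincubated >30 min with compound. Meropenem 50 uM final added; absorbance at 300 nm after 30 min.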

Activity % (negative = inhibition), inactive:
NC(=O)NCC(=O)N1CCC2(CCCN(CCCc3ccccc3)C2)C1 (configuration not stated) -1.71%
COc1ccc2c(c1)c(CN1CCOCCNC(=O)CC1)cn2C -4.71%
O=C(NC1CC(c2nnc(CO)n2C2CC2)C1)c1cccn2cnnc12 (configuration not stated) 6.45%
CC(=O)N1CCN(c2ccnc(-c3nnc(C)n3C3CCCCC3)c2)CC1 7.58% [at 57.5 µM]
CN1C[C@H](O)C[C@H]1c1nnc2n1CCN(C(=O)Cc1cccc(F)c1)CC2 22.2%
COc1ccc(C(=O)N2CC[C@@H](CC(=O)O)[C@@H](CCN3CCC[C@H]3C(N)=O)C2)cc1 16.3% [at 57.5 µM]
Cc1nc(CN2CCN(c3nccc(-c4cccnc4)n3)CC2)cs1 7.35%
O=C(NCc1ccc(F)cc1)[C@@H]1C[C@@H](c2cccc(C(F)(F)F)c2)N(CC2CCOCC2)C1 4.15%
O=C(c1ccccn1)N1CCCC2(CNc3ccccc3[S+](=O)([O-])N2)C1 (configuration not stated) 27.6%
O=C1NCCN1C1CCN(Cc2cccnc2)CC1 -2% [at 57.5 µM]
CCC(c1cccs1)N1C(=O)[C@H]2CN(S(=O)(=O)c3ccccc3F)C[C@H]2C1=O (some centres not stated) 9.97%
COCc1nc2nc(-c3ccccc3)c(-c3ccc(O)c(F)c3)cc2n1C 9.05% [at 57.5 µM]
Cc1ccc(C(C(=O)O)N2CCC(C(=O)N3CCCC3)CC2)c(C)c1 (configuration not stated) -7.75%
CC(=O)N1CCCCN(C(=O)c2cc(-c3ccccc3C(F)(F)F)nc3c2cnn3C)C1 6.36%
OC1(CN2CCCCC2)CCN(Cc2cnn(-c3ccccc3Cl)c2)C1 (configuration not stated) -2.02%
O=C(c1ccc2c(c1)[nH]c(=O)n2C1CCC(O)CC1)N1CCOCC(O)C1 (configuration not stated) 3.21%
CNC(=O)c1noc(CNC(=O)C(c2cccc(F)c2)N(C)C)n1 (configuration not stated) 0.506%
O=C(Nc1ccccc1)N1CCC(N2CCCNC2=O)CC1 10.9% [at 57.5 µM]
Cc1ccc(CN2CCn3c(nn(-c4ccncc4)c3=O)C2)cc1 8.45% [at 57.5 µM]
Cn1cccc1CN1C[C@@H](CO)[C@H](c2ccncc2)C1 -3.1%
CN(Cc1cn(-c2ccccc2)nn1)Cc1noc2c1CCCC2 0.973%
CC(C)Oc1ccc(C(=O)N2Cc3cnn(Cc4ccc(F)cc4)c3C2)cc1 -4.58%
CN(CCc1cn[nH]c1)C(=O)C1CCN(C(=O)C2CCC2)CC1 10.5%
O=C(NCc1ccccc1)c1ccc(-c2ccc(N3CCSCC3)nc2)cc1 9.54%
CCNC(=O)N1CC[C@H]2CC(=O)N([C@H](C(N)=O)C(C)C)CC[C@H]2C1 10.7% [at 57.5 µM]
COc1ncccc1-c1nc(-c2c(C)noc2C)cc2cc(CN(C)C)oc12 9.2% [at 57.5 µM]
O=C(Nc1cccc(C(F)(F)F)c1)N[C@H]1[C@H](O)[C@@H](Oc2ccccc2)[C@@H]2OC[C@H]1O2 -0.184% [at 57.5 µM]
Cc1ccc(-c2cc3c(=O)n(CCNC(=O)c4cc(F)ccc4F)ccn3n2)c(C)c1 10.2%
O=C(O)CCn1ncc2cc(OCC3CCN(c4ncc(F)cn4)CC3)ccc21 5.14% [at 57.5 µM]
COc1ccc(CN2CCCCC23Cc2ccccc2CN(C(C)=O)C3)cc1 (configuration not stated) 10.2%
Cc1csc(CN(C)C(=O)CC(c2ccccc2)c2ccc3c(c2)OCO3)n1 (configuration not stated) 9.65%
c1ccc(Nc2cc3c(cn2)NCCN(Cc2cccs2)C3)cc1 61.5% [at 57.5 µM]
Cc1ccccc1OCc1nc(C2CN(C(=O)NC(C)C)C2)no1 -10.3%
COc1ccc(-n2c(=O)[nH]c3cccnc32)cc1OC 19.8% [at 57.5 µM]
CN(C)C(=O)CNC(=O)c1cccc(S(=O)(=O)NCCn2ccnc2)c1 4.12%
CC(C)(C)c1cc(C[C@H]2CNCC[C@H]2CC(=O)N2CCC(Cc3ccccc3)CC2)no1 -3.5%
CCC1(O)CCC12CCN(C(=O)C1CCCC1)CC2 (configuration not stated) -3.78%
CC(C)NC(=O)c1nc(-c2ccc([S+](C)(=O)[O-])cc2)c2ccccn12 7.48%
COc1ccc(-c2cn3c(n2)CO[C@@H](CNC(=O)CCC(=O)O)C3)cc1 18.3% [at 57.5 µM]
CCOC(=O)CCNC(=O)N1CCCC(c2nc(-c3cnccn3)no2)CCNC(=O)CC1 (configuration not stated) 45.2%
C#CCNC(=O)[C@H]1O[C@H](CCN(C)CC#C)CC[C@@H]1O 0.353% [at 77.1 µM]
O=C(c1ccc(Cl)cc1)N1CCC2(CC1)CC(c1ccccc1)=NO2 0.956%
O=C1NC2(CN(C(=O)c3ccccc3)C2)Oc2ccccc21 -0.352% [at 57.5 µM]
C[S+](=O)([O-])N1CC2(CCN(Cc3c[nH]c4ccccc34)CC2)Cc2ccccc21 -0.677%
Cn1cnnc1CC1CCN(C(=O)CN2CC(c3ccccc3)CC2=O)CC1 (configuration not stated) 18.9%
O=C1NC2(CCCN(C(=O)c3ccc(F)cc3)C2)Oc2ccccc21 (configuration not stated) 6.71% [at 57.5 µM]
O=C(Nc1ccccc1F)N1CC(Oc2ccc(-c3noc(-c4ccccc4)n3)cc2)C1 -0.126%
CCC1Oc2ccc(NC(=O)CC(C)(C)C)cc2CN(Cc2ccccc2F)C1=O (configuration not stated) 1.15%
COc1ccc(OC)c(CNC(=O)c2cccc3c2CCN3C(=O)c2ccc(F)cc2)c1 8.45%
O=C(NCCc1ccccc1)Nc1cccn2ncnc12 6.21%
O=C(C1CCCN1C(=O)c1ccccc1)N1CCC(c2ccccc2)CC1 (configuration not stated) -4.17%
COc1ccc([C@H]2C[C@@H](O)[C@@H](O)[C@@H]2NS(=O)(=O)c2ccc(Cl)cc2)cc1 6.57% [at 57.5 µM]
O=C(C1CCC1)N1CCC(Cc2nncn2Cc2ccccc2)CC1 11.9%
COc1cccc(N2CCN(C(=O)c3noc(-c4ccc(C)cc4)n3)CC2)c1 4.04%
COCCn1c(=O)c2c(n1Cc1ccccc1)CN(C(=O)Cc1cccc(F)c1)CC2 9.62% [at 57.5 µM]
Cc1nc(N2CCC(C(=O)NCCC3=CCCCC3)CC2)cc(C(F)(F)F)n1 21.1%
COc1cc(CC2(CCC(=O)N3CCC(Oc4cccc(F)c4)CC3)CCC(=O)N2)ccc1F (configuration not stated) 9.28%
Cc1ccccc1CC(=O)Nc1cccc(-c2nnc3n2CCCC3)c1 0.602%
CC(=O)N1CCC(N2CCOC[C@H]2c2ncc(C(C)(C)C)[nH]2)CC1 -9.18% [at 57.5 µM]
O=C1N(Cc2cccc(F)c2F)CCCC1(O)CN1CCNCC1 (configuration not stated) 10.3%
COCCN1C(=O)c2ccccc2C(C(=O)Nc2cc(C)ccn2)C12CCCC2 (configuration not stated) 3.52%
Cc1nc(-c2c3n(c(=O)n(CC#N)c2=O)CCCCC3)no1 0.369%
O=c1n(-c2ccc(C(F)(F)F)cc2)nc2n1CCN([S+](=O)([O-])c1ccccc1)C2 8.02%
COC(=O)c1ccc(CN2C[C@@H]3C(C)(C)COc4ccc(OC)cc4[C@]3(CO)C2)cc1 38.3%
O=C(NC[C@H]1O[C@@H](Cc2nc(-c3ccc(OC(F)(F)F)cc3)no2)[C@H](O)[C@@H]1O)C1CC1 7.67%
COc1ccc(NC(=O)N[C@H]2C[C@@H](c3nc(-c4ccncc4)no3)N(C)C2)cc1 2.3% [at 57.5 µM]
Cc1c(NC(=O)CCc2cc3n(n2)CCNC3)cccc1-c1nncn1C 57.5%
O=[S+]1([O-])N(c2ccccc2)C[C@@H](O)[C@]12CCN(Cc1ccc(C(F)(F)F)nc1)C2 -3.16%
O=C(c1ccc(C(F)(F)F)cc1)N1CCCC(C(=O)N2CCC(N3Cc4cccn4C3=O)CC2)C1 (configuration not stated) 45.8%
COc1ccccc1C(=O)N1Cc2c(C(=O)NC3CC3)nn(C)c2C1 0.444%
O=C1NCCCN1C1CCN(Cc2ccncc2)CC1 -0.852% [at 57.5 µM]
Cc1nn(-c2ccccc2)c2c1C(C)N(C1CCN(C(=O)NC3CCCC3)C1)C2=O (configuration not stated) 43.7%
O[C@@H]1C[C@@H](c2nc(-c3ccncc3)no2)N(Cc2cccs2)C1 5.58% [at 57.5 µM]
COc1ccc(OC2CCN(C3CCCC3)CC2)c(C(=O)NCCCN2CCCC2=O)c1 -0.186%
NC(c1ccccc1)c1nnc2n1CCN(C(=O)N1CCOCC1)C2 (configuration not stated) -0.26%
COc1ccc(C(=O)Nc2nc3c(s2)C[C@@H]2[C@](C)(CO)[C@H](O)CC[C@@]2(C)[C@@H]3CC(=O)NC2CCCC2)cc1 5.73%
Cc1occc1C(=O)N1CC(F)(F)C[C@H]1c1nnc(C2CC2)o1 1.73%
Clc1ccccc1C1(c2ccnc(C3CC3)n2)CCNCC1 0.0078%
CN(C)c1ccc(CN2CCC(N3CCCCCC3=O)CC2)cc1 1.4% [at 57.5 µM]
CN(C)Cc1cc(C[C@@H]2CC[C@H](O)[C@@H](CNC(=O)N3CCOCC3)O2)no1 0.0319% [at 57.5 µM]
CCCN(C/C=C/c1ccccc1)C(=O)c1cccc(OCC(N)=O)c1 2.07%
Cn1c(=O)[nH]cc(CC(=O)N2C[C@H](C3CC3)[C@@H](N)C2)c1=O 3.75%

Gathered by group: the compounds so far with a tert-butyl group
Activity % (negative = inhibition), inactive:
CC(C)(C)c1cc(C[C@H]2CNCC[C@H]2CC(=O)N2CCC(Cc3ccccc3)CC2)no1 -3.5%
CCC1Oc2ccc(NC(=O)CC(C)(C)C)cc2CN(Cc2ccccc2F)C1=O (configuration not stated) 1.15%
CC(=O)N1CCC(N2CCOC[C@H]2c2ncc(C(C)(C)C)[nH]2)CC1 -9.18% [at 57.5 µM]

2 successive records already listed:
Activity % (negative = inhibition), inactive:
Cn1cccc1CN1C[C@@H](CO)[C@H](c2ccncc2)C1 -3.1%
CN(Cc1cn(-c2ccccc2)nn1)Cc1noc2c1CCCC2 0.973%
